Test results as given in patent publication US20100113339A1.
Results are given in words; binding and its absence hold for the method and conditions named. Some results given as binding are weak or reduced against the parent protein; the word gives no strength.

Target: mouse serum albumin (mouse), P07724
Assay: SPR Biacore 3000, albumin on CM5 chip, one nanobody concentration; ranked by koff, position 7 of 7, class D
Conditions: remark: other sources report otherwise

- binding: binds
B1: PMP6G7 (VHH)
VHH: QVQLVESGGGLVQPGGSLRLSCAASGFTFSNYWMYWVRVAPGKGLERISRDISTGGGYSYYADSVKGRFTISRDNAKNTLYLQMNSLKPEDTALYYCAKDREAQVDTLDFDYRGQGTQVTVSS
